Laboratory results taken from PubChem BioAssay AID1347075 (National Center for Advancing Translational Sciences (NCATS), 2019).
About 5,500 (1.4%) of roughly 400,000 compounds were called active. Inconclusive results, whose numbers are uncertain, are shown with a selection of clear calls. The call rests on the fitted dose curve; in most records, active means well fitted cell-killing curve with a large enough effect; inconclusive means small, poorly fitted or top-dose-only effect, or effect the other way; inactive means flat fitted curve, though single readings scatter. Potencies beside an inconclusive call are fits to weak or partial responses and may not hold up.
On the % scale 0 is the no-effect control and ±100 the full control effect; potency means the concentration at half of the fitted maximal effect.

Experiment: qHTS assay for MDR1-selective chemotherapeutics: Primary screen using the parental adenocarcinoma cell KB-3-1; further: nearly all actives have a fitted effect of over 60% in size
Details: KB-3-1 viability, CellTiter-Glo ATP luminescence, 72 h; activity change, negative = cytotoxic: at 46.1 µM (top of the series)
Summary of the method: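 Parental KB-3-1 adenocarcinoma cells in phenol-red-free DMEM with 10% FBS were pin-treated with compounds at several concentrations, incubated 72 h at 37 °C, and viability read by CellTiter-Glo luminescence; concentration-effect curves were fitted after normalization.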
With `COC(=O)[C@@]1(Cc2ccc(F)cc2)[C@H]2c3cc(C(=O)N4CCCC4)n(CCO)c3C[C@H]2CN1C(=O)c1ccccc1` the “activity change, negative = cytotoxic” value was inactive: 2.56%.
With `CCOC(=O)C1=C(COCCN)NC(C)=C(C(=O)OC)C1c1ccccc1Cl` (stereo not given) the Potency was inconclusive: 32.6 µM [cytotoxic, partial curve, poor fit].
For `COc1cc2c(cc1OC)C1Cc3ccc(OC)c(OC)c3CN1CC2` (stereo not given), the “activity change, negative = cytotoxic” value was inactive: 4.73%.
For `Cc1cc(Cl)ccc1NC(=S)NCCC(c1ccccc1)c1ccccc1`, the Potency was inconclusive: 35.5 µM [cytotoxic, single point].
With `O=C(CCCN1C(=O)/C(=C/c2cccc(Br)c2)SC1=S)NCCCN1CCOCC1` the Potency was inconclusive: 32.6 µM [cytotoxic, single point].
For `CCOC(=O)c1cccc(N2C(N)=NC(N)=NC2(C)C)c1`, the Potency was inconclusive: 16.4 µM [cytotoxic, single point].
With `CCc1ccc(NCCC(=O)c2ccc(Cl)cc2)cc1` the “activity change, negative = cytotoxic” value was inactive: 1.5%.
In the case of `COc1ccc(NC(=O)c2c(NC(=O)c3ccc(Br)cc3)sc3c2CCCC3)cc1`, the Potency is reported as inconclusive: 23.1 µM [cytotoxic, single point].
In the case of `O=C(Nc1cccc(NC(=O)c2ncn[nH]2)c1)c1cccc(Cl)c1`, the Potency is reported as inconclusive: 20.6 µM [rising, single point].
With `COC(=O)c1[nH]c2c(c1C)C(=O)CC(c1cc(OC)ccc1OC)C2` (stereo not given) the Potency was active: 3.66 µM.
With `Cc1cc(C)c(C)c(S(=O)(=O)N2CCN(C(=O)c3ccncc3)CC2)c1C` the Potency was inconclusive: 20.6 µM [cytotoxic, partial curve, poor fit].
In the case of `CCOC(=O)c1cc2c(=O)n3cccc(C)c3nc2n(CC2CCCO2)c1=NC(C)=O` (stereo not given), the Potency is reported as inconclusive: 29.1 µM [cytotoxic, single point].
For `COc1ccc(OC)c(N(CC(=O)Nc2cccnc2)S(=O)(=O)c2ccc(C)cc2)c1`, the Potency was inconclusive: 29.1 µM [cytotoxic, single point].
For `CCCNc1nc(Cl)nc(Nc2ccc(Cl)cc2)n1`, the Potency was inconclusive: 29.1 µM [cytotoxic, single point].
For `O=C(C(=O)N1CCCN(Cc2ccc(F)cc2)CC1)c1ccccc1`, the “activity change, negative = cytotoxic” value was inactive: -5.47%.
For `O=C(COc1ccccc1C(=O)NCC1CCCO1)Nc1ccc(Cl)cc1Cl` (stereo not given), the “activity change, negative = cytotoxic” value was inactive: 12.4%.
In the case of `CCOc1ccccc1NC(=O)Cc1noc2ccc(C)cc12`, the “activity change, negative = cytotoxic” value is reported as inactive: -4.85%.
With `COc1cc(NC(=O)c2ccco2)c(OC)cc1NC(=O)c1cc(OC)c(OC)c(OC)c1` the Potency was inconclusive: 8.2 µM [rising, partial curve].
With `O=C1CC(c2cc(Br)ccc2F)c2cc3c(cc2N1)CCC3` (stereo not given) the Potency was active: 1.64 µM.
With `Cc1ccc(C(C)C)c(OCC(=O)NCC2(N(C)C)CCCCC2)c1` the activity change, negative = cytotoxic was inconclusive: -72.2%.
For `COc1ccc2[nH]c3c(c2c1)CCN1C(=O)N([C@@H](C)C(=O)NCc2ccc(C)cc2)C(=O)[C@]31C`, the “activity change, negative = cytotoxic” value was inactive: 0%.
In the case of `CCOC(=O)C1CCC(CN(Cc2cccc(Br)c2)S(=O)(=O)c2ccc(C)cc2)CC1` (stereo not given), the “activity change, negative = cytotoxic” value is reported as inactive: 2.89%.
For `CCc1ccc(C(=O)c2cn(CC(=O)Nc3ccc4c(c3)OCO4)c3cc(OC)c(OC)cc3c2=O)cc1`, the “activity change, negative = cytotoxic” value was inactive: 0%.
With `CCc1ccccc1NC(=O)c1c(NC(=O)c2ccccc2)sc2c1CCCC2` the Potency was inconclusive: 32.6 µM [rising, single point].
With `Cc1ccc2c(=O)n3c(nc2c1)C(CC(C)C)NC(=O)c1cccnc1-3` (stereo not given) the “activity change, negative = cytotoxic” value was inactive: 22.4%.
With `CCO[C@@H]1OC(C(=O)NCc2nc3ccccc3[nH]2)=C[C@H](C2CC2)[C@H]1CCCO` the Potency was active: 5.17 µM.
For `COc1ccc(C(=O)C/C(=C\C(=O)c2ccc(C)cc2)c2ccccc2)cc1`, the Potency was inconclusive: 20.6 µM [cytotoxic, single point].
In the case of `C=C(C)C(=O)Nc1cccc(C2=NOC3(C2)C[C@@H](C(N)=O)N(C(=O)CCCCC)C3)c1` (stereo not given in full), the Potency is reported as inconclusive: 18.4 µM [rising, single point].
In the case of `COC(=O)CNc1nc(C2CC2)nc2c1nnn2Cc1ccccc1Cl`, the “activity change, negative = cytotoxic” value is reported as inactive: 0.334%.
For `Cc1cccc(-c2nc(CSCC(=O)N3CCN(Cc4ccc5c(c4)OCO5)CC3)c(C)o2)c1`, the Potency was inconclusive: 29.1 µM [cytotoxic, single point].
In the case of `CC1CN(c2nc(N(C)c3ccccc3)nc(N)c2[N+](=O)[O-])CC(C)O1` (stereo not given), the Potency is reported as inconclusive: 29.1 µM [cytotoxic, single point].
In the case of `CC1CC(=O)Nc2ccccc2N1C(=O)CSc1ncnc2sccc12` (stereo not given), the “activity change, negative = cytotoxic” value is reported as inactive: 27.7%.
With `Cc1cc(C)c2c(=O)cc(CSCC(=O)Nc3ccccc3Cl)[nH]c2c1` the “activity change, negative = cytotoxic” value was inactive: 0.426%.
In the case of `CCN(Cc1ccccc1)S(=O)(=O)c1nc2nc(C)c(C)c(C)n2n1`, the “activity change, negative = cytotoxic” value is reported as inactive: 1.07%.
For `O=C(CCCN1C(=O)CSc2ncccc21)N1CCN(c2cccc(C(F)(F)F)c2)CC1`, the Potency was inconclusive: 29.1 µM [cytotoxic, single point].
With `O=c1cnnc(N/N=C/c2ccccn2)[nH]1` the Potency was inconclusive: 1.3 µM [cytotoxic, full curve].
In the case of `Cc1ccc2cc(NC(=O)c3ccc(C(C)(C)C)cc3)ccc2n1`, the Potency is reported as inconclusive: 32.6 µM [cytotoxic, single point].
In the case of `COc1ccc(CNC(=O)c2ccc(N3CCCC3)c(NC(=O)NCc3ccc(F)cc3)c2)cc1`, the Potency is reported as inconclusive: 29.1 µM [cytotoxic, single point].
In the case of `COC(=O)CN(C#N)c1nc(NC(C)C)nc(OC)n1`, the “activity change, negative = cytotoxic” value is reported as inactive: -4.29%.
In the case of `Cc1ccc2cc(CCNC(=O)C(C)C)c(=O)[nH]c2c1C`, the “activity change, negative = cytotoxic” value is reported as inactive: 23.9%.
In the case of `C=CCc1cccc(/C=N/NC(=O)C[n+]2ccccc2)c1O`, the Potency is reported as inconclusive: 18.4 µM [cytotoxic, single point].
For `NC(=O)c1cc(-c2cccnc2)nc2ccc(Br)cc12`, the Potency was inconclusive: 14.6 µM [rising, partial curve, poor fit].
With `Cc1ccc2c(Sc3ccc(Cl)cc3)c(C(=O)N3CCC(C)CC3)[nH]c2c1` the Potency was inconclusive: 29.1 µM [cytotoxic, single point].
For `CCN(CC)CCNC(=O)c1ccc(Cn2c(SCc3ccccc3)nc3cccnc32)cc1`, the Potency was inconclusive: 29.1 µM [cytotoxic, single point].
In the case of `CC(=O)Nc1cc(-c2cccc(C(=O)NCCN(C)C)c2)cn2c(-c3cccc(C(F)(F)F)c3)cnc12`, the Potency is reported as inconclusive: 29.1 µM [cytotoxic, single point].
In the case of `O=C(NNC(=O)c1cccc2ccccc12)c1ccc(-c2ccccc2)cc1`, the Potency is reported as inconclusive: 3.26 µM [cytotoxic, partial curve, poor fit].
In the case of `Oc1ccc(NC(=S)Nc2ccccc2)cc1`, the Potency is reported as inconclusive: 16.4 µM [cytotoxic, single point].
For `CCOC(=O)CSC1=C(C#N)C(c2ccc(C)o2)CC(=O)N1` (stereo not given), the Potency was active: 0.58 µM.
For `COCCCNC(=O)Cn1cc2c(n1)CCCCC2`, the Potency was inconclusive: 0.0052 µM [rising, full curve].
With `CCc1nc2ccccc2n1CCCCOc1ccc(C)cc1` the Potency was inconclusive: 29.1 µM [cytotoxic, single point].
For `O=C(Nc1cc2ccccc2oc1=O)c1ccccc1`, the Potency was inconclusive: 20.6 µM [cytotoxic, single point].
In the case of `COc1ccc(OCCn2cc(/C(N)=N/O)c3ccccc32)cc1`, the “activity change, negative = cytotoxic” value is reported as inactive: -1.17%.
For `CCOc1cc(CNC(=O)c2sc3ncnc(N(C)C4CCCCC4)c3c2C)ccc1OC`, the Potency was inconclusive: 29.1 µM [cytotoxic, partial curve, poor fit].
For `CN(C)S(=O)(=O)c1ccc(C(=O)Nc2nnc(-c3ccc4c(c3)CCCC4)o2)cc1`, the Potency was inconclusive: 2.59 µM [cytotoxic, partial curve, poor fit].
In the case of `COc1ccc(C2c3ccc4ccccc4c3Oc3ncn(Cc4ccco4)c(=N)c32)cc1OC` (stereo not given), the Potency is reported as inconclusive: 20.6 µM [cytotoxic, single point].
For `CN(CC(=O)Nc1ccc(F)cc1)C(=O)c1cn(-c2ccccc2)nc1-c1cccs1`, the “activity change, negative = cytotoxic” value was inactive: -2.12%.
For `Nc1nonc1C(=O)NCCNCc1cc(Br)ccc1OCc1ccc(F)cc1`, the Potency was active: 11.2 µM.
In the case of `CN(C)c1ccc(-c2nc3ccccc3c(=O)[nH]2)cc1`, the Potency is reported as inconclusive: 16.4 µM [cytotoxic, single point].
With `CC(C)(C)c1cc(C(=O)Nc2ccc(F)cc2)n(Cc2ccc(F)cc2)n1` the Potency was inconclusive: 29.1 µM [cytotoxic, single point].
In the case of `Cc1ccc(C)c(N2CCN(C(c3ccccc3)c3nnc(-c4ccccc4F)o3)CC2)c1` (stereo not given), the “activity change, negative = cytotoxic” value is reported as inactive: -21.7%.
For `Cc1cc(=O)[nH]c(SCC(=O)Nc2ccc(Br)cc2)c1C#N`, the Potency was inconclusive: 16.4 µM [cytotoxic, single point].
With `O=C(NC1CCCCC1)C(c1ccnc2ccccc12)n1c(=O)c(-c2cc3ccccc3[nH]2)nc2ccccc21` (stereo not given) the Potency was inconclusive: 18.4 µM [cytotoxic, partial curve, poor fit].
For `Cc1ccc(C)c(N2CCN(CCCNC(=O)c3cnn(-c4ccccc4Cl)c3C3CCN(C(=O)OC(C)(C)C)CC3)CC2)c1`, the Potency was inconclusive: 18.4 µM [cytotoxic, single point].
In the case of `Cc1cc(Cl)ccc1NC(=O)C(=O)NCc1ccco1`, the “activity change, negative = cytotoxic” value is reported as inactive: -19.7%.
In the case of `CC1CN(CC(=O)NCc2ccccc2)CC(C)O1` (stereo not given), the “activity change, negative = cytotoxic” value is reported as inactive: 13%.
With `Cc1ccc(Cl)cc1N1CCN(Cc2nc3c(c(=O)[nH]c(=O)n3C)n2Cc2ccccc2F)CC1` the Potency was inconclusive: 29.1 µM [cytotoxic, single point].
In the case of `O=c1cc(NCCO)c2ccccc2o1`, the “activity change, negative = cytotoxic” value is reported as inactive: -10.6%.
In the case of `CCOc1cc(C(=O)Nc2ccc(N3CCOCC3)cc2)cc(Br)c1OC`, the Potency is reported as inconclusive: 29.1 µM [cytotoxic, single point].
With `CCc1ccc(NC(=O)CSc2nncn2-c2cccnc2)cc1` the Potency was inconclusive: 29.1 µM [rising, single point].
In the case of `Cc1ccc2[nH]c(-c3cccc(F)c3)cc(=O)c2c1`, the Potency is reported as active: 0.411 µM.
